Measurements as given in patent US7326731B2, “Muscarinic agonists” (Eli Lilly and Company, priority 2002, dated 2008).

Tested on: Male Sprague-Dawley rats
Conditions: s.c. immediately after the sampling phase; three-hour delay; dose-related

For `CN1[C@@H]2C[C@@H](OC(=O)[C@H](CO)c3ccccc3)C[C@H]1[C@@H]1O[C@@H]12` [Scopolamine, scopolamine], the “retention in the eight arm radial maze” value was “disrupted retention”.
